According to patent US20180037892:
Results from cells or extracts need not show a direct contact. For some assays here: A negative result means that nothing was seen under these conditions. For some assays here: The exact form of at least one protein or probe is not confirmed.

Sequences of proteins named here, by UniProt entry; tags and fusion partners are left off. Residues count along the entry.
UniProt P16422, 24-314: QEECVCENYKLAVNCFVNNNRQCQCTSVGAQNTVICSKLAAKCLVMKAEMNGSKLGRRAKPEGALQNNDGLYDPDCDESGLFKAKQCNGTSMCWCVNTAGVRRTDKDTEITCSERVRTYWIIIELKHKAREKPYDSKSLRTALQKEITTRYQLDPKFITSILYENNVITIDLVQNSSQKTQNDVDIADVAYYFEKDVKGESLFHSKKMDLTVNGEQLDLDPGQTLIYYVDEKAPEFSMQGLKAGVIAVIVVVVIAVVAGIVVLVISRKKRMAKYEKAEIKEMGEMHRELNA
UniProt Q62351, whole entry: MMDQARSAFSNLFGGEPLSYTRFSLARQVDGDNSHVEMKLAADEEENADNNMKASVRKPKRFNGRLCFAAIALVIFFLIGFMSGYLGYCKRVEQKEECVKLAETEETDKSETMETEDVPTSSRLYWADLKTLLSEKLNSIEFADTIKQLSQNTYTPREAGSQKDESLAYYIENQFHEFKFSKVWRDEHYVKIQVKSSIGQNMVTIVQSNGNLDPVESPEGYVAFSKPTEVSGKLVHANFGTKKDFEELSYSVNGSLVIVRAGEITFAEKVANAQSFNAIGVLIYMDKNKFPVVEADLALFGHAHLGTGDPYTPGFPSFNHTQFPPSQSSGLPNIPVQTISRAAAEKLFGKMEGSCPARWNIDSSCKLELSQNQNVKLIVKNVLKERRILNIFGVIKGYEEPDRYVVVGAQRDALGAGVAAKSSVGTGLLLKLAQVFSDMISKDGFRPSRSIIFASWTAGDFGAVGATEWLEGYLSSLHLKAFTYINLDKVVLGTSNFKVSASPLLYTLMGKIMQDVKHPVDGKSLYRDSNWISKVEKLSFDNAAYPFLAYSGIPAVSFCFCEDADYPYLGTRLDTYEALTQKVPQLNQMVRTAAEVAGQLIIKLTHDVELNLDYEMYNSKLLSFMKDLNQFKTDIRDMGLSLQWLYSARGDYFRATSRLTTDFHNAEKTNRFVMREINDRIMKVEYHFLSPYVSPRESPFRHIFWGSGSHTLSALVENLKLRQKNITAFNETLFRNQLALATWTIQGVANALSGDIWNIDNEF

Experiments:
[1] = molecular target: EpCAM (UniProt P16422); test: flow cytometry; conditions: 3' inverted dT, protein on the cell surface, label: 5' TYE665, single-stranded DNA; for Kd: 37 C
[2] = molecular target: Transferrin receptor (TfR) (Mus musculus) (UniProt Q62351); test: flow cytometry; conditions: 3' inverted dT; bEnd.3 cells; internalised; protein on the cell surface; label: 5' TYE665; single-stranded DNA; variant of TfR1
[3] = HEY cells, protein details: native EpCAM on HT29 or HEY cells
[4] = HT29 cells, no binding to EpCAM-negative HEK293T and K562, protein details: native EpCAM on HT29 or HEY …

Sequence	Kd [1, 3] [nM]	Kd [1, 4] [nM]	further results
GCGTGGTACCACGC [TfR3]	–	–	binding result ([1]; HEY cells, non-specific binding only, not internalised, protein details: native EpCAM on HT29 or HEY cells, variant of TfR1): no binding
GCGTGGTCACACGC [TfR4]	–	–	binding result [2]: binds
CACTACAGAGGTTGCGTCTGTCCCACGTTGTCATGGGGGGTTGGCCTG [EpCAM full length aptamer (SYL3C, 48-mer)]	495	–	Kd ([1]; HT29 cells, protein details: native EpCAM on HT29 or HEY cells): 9 nM
ACAGAGGTTGCGTCTGT [Ep7]	248	11	–
CCCACGTTGTCATGGG [Ep8]	696	6.19	–
